These are yes or no findings as the source states them, for the method shown. In cells and extracts the contact can be indirect. Some results given as binding are weak or reduced against the parent protein; the word gives no strength. Sequences can lack the tags named with a protein.

The target in assay [1] is T1, SLF2 (tagged, full length cDNA in pcDNA4/TO) (human) (UniProt Q8IX21).
T1 sequence: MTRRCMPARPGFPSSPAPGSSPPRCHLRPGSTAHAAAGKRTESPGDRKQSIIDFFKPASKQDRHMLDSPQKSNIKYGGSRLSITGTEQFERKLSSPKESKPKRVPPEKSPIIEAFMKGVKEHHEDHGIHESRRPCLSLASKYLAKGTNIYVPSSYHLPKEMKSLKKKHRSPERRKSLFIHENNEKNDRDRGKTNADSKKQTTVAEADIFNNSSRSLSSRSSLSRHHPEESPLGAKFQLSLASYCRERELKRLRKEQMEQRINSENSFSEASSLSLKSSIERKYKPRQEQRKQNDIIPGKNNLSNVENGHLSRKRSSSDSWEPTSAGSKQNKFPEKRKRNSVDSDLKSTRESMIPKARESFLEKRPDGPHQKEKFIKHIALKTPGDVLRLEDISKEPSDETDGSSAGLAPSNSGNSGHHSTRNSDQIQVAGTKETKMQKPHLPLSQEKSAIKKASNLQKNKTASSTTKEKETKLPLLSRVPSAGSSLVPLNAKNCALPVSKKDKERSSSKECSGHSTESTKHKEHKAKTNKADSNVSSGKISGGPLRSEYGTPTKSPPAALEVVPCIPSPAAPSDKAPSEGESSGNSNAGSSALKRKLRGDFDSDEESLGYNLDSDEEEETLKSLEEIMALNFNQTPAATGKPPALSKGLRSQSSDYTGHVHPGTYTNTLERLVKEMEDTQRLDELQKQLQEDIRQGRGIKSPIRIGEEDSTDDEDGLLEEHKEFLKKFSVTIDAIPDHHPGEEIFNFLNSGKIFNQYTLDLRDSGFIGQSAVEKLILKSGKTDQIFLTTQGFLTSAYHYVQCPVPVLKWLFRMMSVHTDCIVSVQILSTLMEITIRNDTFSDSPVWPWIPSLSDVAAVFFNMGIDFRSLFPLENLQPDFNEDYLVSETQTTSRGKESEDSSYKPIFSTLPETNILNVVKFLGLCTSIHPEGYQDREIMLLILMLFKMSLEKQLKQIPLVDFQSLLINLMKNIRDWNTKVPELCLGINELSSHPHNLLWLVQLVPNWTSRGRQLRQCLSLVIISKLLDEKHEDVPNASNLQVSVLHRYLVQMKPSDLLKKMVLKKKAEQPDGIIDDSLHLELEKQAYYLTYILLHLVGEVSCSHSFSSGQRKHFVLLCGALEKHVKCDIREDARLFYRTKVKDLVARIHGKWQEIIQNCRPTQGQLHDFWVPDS
In words: co-IP; tagged proteins in U-2 OS lysates (EBC buffer: 150 mM NaCl, 50 mM Tris pH 7.5, 1 mM EDTA, 0.5% IGEPAL CA-630), precipitated with Strep-Tactin Sepharose, immunoblot; full length SLF2, deletion and minimal binding region constructs. (In general: In western blotting, separated proteins are transferred to a membrane and probed.)

Assay [2] deals with GFP-SMC5 WT (human) (UniProt Q8IY18). The experiment in a line: co-IP; U-2 OS cells expressing Flag-SLF2 transfected with WT or mutant GFP-SMC5; GFP-SMC5 precipitated from cell extracts with GFP-Trap beads; immunoblot.
The target in assay [3] is T2, GFP-SMC5 p.(His990Asp) (human) (UniProt Q8IY18).
T2 sequence: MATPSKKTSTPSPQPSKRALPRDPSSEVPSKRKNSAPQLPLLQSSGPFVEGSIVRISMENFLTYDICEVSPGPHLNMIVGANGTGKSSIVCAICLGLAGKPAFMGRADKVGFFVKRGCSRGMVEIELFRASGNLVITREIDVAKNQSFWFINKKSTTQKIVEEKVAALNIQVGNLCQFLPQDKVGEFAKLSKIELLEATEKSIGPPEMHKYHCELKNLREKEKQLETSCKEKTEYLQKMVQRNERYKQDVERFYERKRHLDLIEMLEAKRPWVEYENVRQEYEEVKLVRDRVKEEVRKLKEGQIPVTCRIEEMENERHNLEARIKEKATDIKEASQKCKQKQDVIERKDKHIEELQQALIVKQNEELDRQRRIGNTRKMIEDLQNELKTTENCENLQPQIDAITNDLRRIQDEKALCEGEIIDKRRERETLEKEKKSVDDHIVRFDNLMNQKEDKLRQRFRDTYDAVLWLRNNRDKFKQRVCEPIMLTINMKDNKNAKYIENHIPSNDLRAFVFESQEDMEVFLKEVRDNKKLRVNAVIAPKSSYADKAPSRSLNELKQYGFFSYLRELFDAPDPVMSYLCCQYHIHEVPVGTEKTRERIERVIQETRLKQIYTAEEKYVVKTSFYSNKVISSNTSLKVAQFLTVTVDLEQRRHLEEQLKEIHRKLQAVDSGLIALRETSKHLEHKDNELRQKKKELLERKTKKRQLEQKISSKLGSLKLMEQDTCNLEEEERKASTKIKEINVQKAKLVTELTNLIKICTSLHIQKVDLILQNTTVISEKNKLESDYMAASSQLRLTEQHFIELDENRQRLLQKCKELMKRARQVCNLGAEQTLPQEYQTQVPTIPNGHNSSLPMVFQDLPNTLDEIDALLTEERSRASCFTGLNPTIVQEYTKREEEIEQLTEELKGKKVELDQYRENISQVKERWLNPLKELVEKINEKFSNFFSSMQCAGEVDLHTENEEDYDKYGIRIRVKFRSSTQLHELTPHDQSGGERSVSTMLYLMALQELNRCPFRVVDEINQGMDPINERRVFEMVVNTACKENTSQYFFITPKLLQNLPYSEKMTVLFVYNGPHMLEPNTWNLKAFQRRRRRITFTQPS
The description is as above.

B1: SMC6 (in U-2 OS lysate, SLF2 mapping experiment) (protein, UniProt Q96SB8 1-1091)
chain: MAKRKEENFSSPKNAKRPRQEELEDFDKDGDEDECKGTTLTAAEVGIIESIHLKNFMCHSMLGPFKFGSNVNFVVGNNGSGKSAVLTALIVGLGGRAVATNRGSSLKGFVKDGQNSADISITLRNRGDDAFKASVYGNSILIQQHISIDGSRSYKLKSATGSVVSTRKEELIAILDHFNIQVDNPVSVLTQEMSKQFLQSKNEGDKYKFFMKATQLEQMKEDYSYIMETKERTKEQIHQGEERLTELKRQCVEKEERFQSIAGLSTMKTNLESLKHEMAWAVVNEIEKQLNAIRDNIKIGEDRAARLDRKMEEQQVRLNEAEQKYKDIQDKLEKISEETNARAPECMALKADVVAKKRAYNEAEVLYNRSLNEYKALKKDDEQLCKRIEELKKSTDQSLEPERLERQKKISWLKERVKAFQNQENSVNQEIEQFQQAIEKDKEEHGKIKREELDVKHALSYNQRQLKELKDSKTDRLKRFGPNVPALLEAIDDAYRQGHFTYKPVGPLGACIHLRDPELALAIESCLKGLLQAYCCHNHADERVLQALMKRFYLPGTSRPPIIVSEFRNEIYDVRHRAAYHPDFPTVLTALEIDNAVVANSLIDMRGIETVLLIKNNSVARAVMQSQKPPKNCREAFTADGDQVFAGRYYSSENTRPKFLSRDVDSEISDLENEVENKTAQILNLQQHLSALEKDIKHNEELLKRCQLHYKELKMKIRKNISEIRELENIEEHQSVDIATLEDEAQENKSKMKMVEEHMEQQKENMEHLKSLKIEAENKYDAIKFKINQLSELADPLKDELNLADSEVDNQKRGKRHYEEKQKEHLDTLNKKKRELDMKEKELEEKMSQARQICPERIEVEKSASILDKEINRLRQKIQAEHASHGDREEIMRQYQEARETYLDLDSKVRTLKKFIKLLGEIMEHRFKTYQQFRRCLTLRCKLYFDNLLSQRAYCGKMNFDHKNETLSISVQPGEGNKAAFNDMRALSGGERSFSTVCFILSLWSIAESPFRCLDEFDVYMDMVNRRIAMDLILKMADSQRFRQFILLTPQSMSSLPSSKLIRILRMSDPERGQTTLPFRPVTQEEDDDQR
As for B1, in assay [1], the binding result is on record as “binds”.

B2: Flag-SLF2 (protein, UniProt Q8IX21 1-1173)
chain: T1 sequence
Consider B2, for which the binding entry in assay [2] and in assay [3] was “binds” in each case.

B3: SLF1 (tagged) (protein, UniProt Q9BQI6 1-1058)
chain: MEDGTPKHIIQMTGFKMEEKEALVKLLLKLDCTFIKSEKYKNCTHLIAERLCKSEKFLAACAAGKWILTKDYIIHSAKSGRWLDETTYEWGYKIEKDSRYSPQMQSAPKRWREELKRTGAPGAFHRWKVVLLVRTDKRSDSLIRVLEAGKANVILPKSSPSGITHVIASNARIKAEKEKDNFKAPFYPIQYLGDFLLEKEIQNDEDSQTNSVWTEHSNEETNKDFRKDAGFLEMKGALRETMYRTQKEMQNHEDVNVGSILIQHHKKEKFSGSSKDLKFVKMRNTFGSHTYENQKEIKKKDEDIQRSYTLRRKRKKGKESNCKKGVEHEKIKSTLRRHIYNRDQKEMKNSIFAEYAKESKAMAIKTDVDVVEIKNTLRKHIYRAQAVRYNCIRIDKQPVYNVEVKNAEFPRGVLNLIESLIEGHFFKEAIEELSTLQAHYIPPVCVLHALLENVLQDNIDTFSGRYFHILSALLHLHPPWKSPAMSRYYLELFQCPTCMKGAWSLVEVLIRSCLFNESFCHQISENIGSKVLHLTLLKFFFNLIESEVQHLSQKLYDWSDSQNLKITGKAMLLEIFWSGSETSGLLTKPVNMLLEWTIYSHKEKFKSNDVFKHELAYLLAGILGAAIDYWIFLGLKMGRNVMRHMSDDLGSYVSLSCDDFSSQELEIFICSFSSSWLQMFVAEAVFKKLCLQSSGSVSSEPLSLQKMVYSYLPALGKTGVLGSGKIQVSKKIGQRPCFDSQRTLLMLNGTKQKQVEGLPELLDLNLAKCSSSLKKLKKKSEGELSCSKENCPSVVKKMNFHKTNLKGETALHRACINNQVEKLILLLSLPGIDINVKDNAGWTPLHEACNYGNTVCVQEILQRCPEVDLLTQVDGVTPLHDALSNGHVEIGKLLLQHGGPVLLQQRNAKGELPLDYVVSPQIKEELFAITKIEDTVENFHAQAEKHFHYQQLEFGSFLLSRMLLNFCSIFDLSSEFILASKGLTHLNELLMACKSHKETTSVHTDWLLDLYAGNIKTLQKLPHILKELPENLKVCPGVHTEALMITLEMMCRSVMEFS
For B3, the binding entry in assay [1] was “binds”.

B4: NSMCE2 (endogenous, U-2 OS) (protein, UniProt Q96MF7 1-247)
chain: MPGRSSSNSGSTGFISFSGVESALSSLKNFQACINSGMDTASSVALDLVESQTEVSSEYSMDKAMVEFATLDRQLNHYVKAVQSTINHVKEERPEKIPDLKLLVEKKFLALQSKNSDADFQNNEKFVQFKQQLKELKKQCGLQADREADGTEGVDEDIIVTQSQTNFTCPITKEEMKKPVKNKVCGHTYEEDAIVRMIESRQKRKKKAYCPQIGCSHTDIRKSDLIQDEALRRAIENHNKKRHRHSE
As to B4, the binding result in assay [2] and in assay [3] was “binds” in each case.

The record behind these values is article PMC9636423.
